Results from patent US7659246B2, “Treatment of osteoarthritis” (Promics Pty Limited, priority 2002, dated 2010).
Some entries share one result that the patent states for a list of compounds. Where a SMILES comes first, the peptide text is derived from it. Bridges are numbered along the chain shown (N, C = ends). [ ]: non-standard residue; d: D form. dCha = N[C@H](CC1CCCCC1)C(=O)O; Phg = N[C@H](C(=O)O)c1ccccc1; Orn = NCCC[C@H](N)C(=O)O

Biological target: T1, C5a receptor on human neutrophils (Homo sapiens, UniProt P21730)
T1 construct: Cells are isolated as previously described (Sanderson et al, 1995); endogenous in cells; host or cells: isolated human neutrophils (PMNs)
T1 sequence (P21730 1-350): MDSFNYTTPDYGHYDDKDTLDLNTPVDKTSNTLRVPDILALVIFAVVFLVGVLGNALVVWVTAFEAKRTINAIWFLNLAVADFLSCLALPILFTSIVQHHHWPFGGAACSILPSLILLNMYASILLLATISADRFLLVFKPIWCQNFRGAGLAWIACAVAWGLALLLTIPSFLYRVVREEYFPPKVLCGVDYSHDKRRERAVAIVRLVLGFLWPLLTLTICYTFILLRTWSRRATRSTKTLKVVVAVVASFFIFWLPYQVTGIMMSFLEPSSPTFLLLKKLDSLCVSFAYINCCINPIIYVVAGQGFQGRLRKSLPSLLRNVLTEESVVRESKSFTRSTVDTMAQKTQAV
Assay: Myeloperoxidase release assay for antagonist activity
Format: cell-based
Settings: against the C5a receptor on human neutrophils; read-out: antagonist potency (IC50)

CC(C)CC(=O)N[C@@H](Cc1ccccc1)C(=O)N[C@H]1CCCNC(=O)[C@H](CCCNC(=N)N)NC(=O)[C@H](Cc2c[nH]c3ccccc23)NC(=O)[C@@H](CC2CCCCC2)NC(=O)[C@@H]2CCCN2C1=O [Compound 3]
IC50: < 1000 nM

CC(=O)N[C@@H](Cc1ccccc1)C(=O)N[C@H]1CCCNC(=O)[C@H](CCCNC(=N)N)NC(=O)[C@H](Cc2c[nH]c3ccccc23)NC(=O)[C@@H](CC2CCCCC2)NC(=O)[C@H](C(C)C)NC1=O [Compound 20] (Ac-F[Orn]V[dCha]WR; lactam 2-C)
IC50: < 1000 nM

COC(=O)CCC(=O)N[C@@H](Cc1ccccc1)C(=O)N[C@H]1CCCNC(=O)[C@H](CCCNC(=N)N)NC(=O)[C@H](Cc2c[nH]c3ccccc23)NC(=O)[C@@H](CC2CCCCC2)NC(=O)[C@@H]2CCCN2C1=O [Compound 5]
IC50: < 1000 nM

N=C(N)NCCC[C@@H]1NC(=O)[C@H](Cc2c[nH]c3ccccc23)NC(=O)[C@@H](CC2CCCCC2)NC(=O)[C@@H]2CCCN2C(=O)[C@@H](NC(=O)[C@@H](N)c2ccccc2)CCCNC1=O [Compound 12] (H-[Phg][Orn]P[dCha]WR; lactam 2-C)
IC50: < 1000 nM

N=C(N)NCCC[C@@H]1NC(=O)[C@H](Cc2c[nH]c3ccccc23)NC(=O)[C@@H](CC2CCCCC2)NC(=O)[C@@H]2CCCN2C(=O)[C@@H](NC(=O)[C@H](Cc2ccccc2)NC(=O)c2ccccc2)CCCNC1=O [Compound 2]
IC50: < 1000 nM

N=C(N)NCCC[C@@H]1NC(=O)[C@H](Cc2c[nH]c3ccccc23)NC(=O)[C@@H](CC2CCCCC2)NC(=O)[C@@H]2CCCN2C(=O)[C@@H](NC(=O)[C@H](Cc2ccccc2)NC(=O)CCC(=O)O)CCCNC1=O [Compound 6]
IC50: < 1000 nM
